Binding data for 1 molecule are collected here from patent US20240294622A1.

Protein sequences, listed by entry. Tags and fused reporters are not part of them. Lines headed by an entry give the natural chain unless they say otherwise; changes in a name come on top.
UniProt O60565: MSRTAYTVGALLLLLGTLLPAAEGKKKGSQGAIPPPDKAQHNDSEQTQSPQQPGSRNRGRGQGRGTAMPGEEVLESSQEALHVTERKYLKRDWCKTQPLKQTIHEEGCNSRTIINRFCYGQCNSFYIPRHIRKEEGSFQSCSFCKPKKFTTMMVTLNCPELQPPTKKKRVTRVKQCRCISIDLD

These are yes or no findings as the source states them, for the method shown. Some results given as binding are weak or reduced against the parent protein; the word gives no strength.

For test [1], the target named is hGREM1 (Peprotech) (human) (UniProt O60565). Briefly: blocking ELISA: coated BMP2 0.25ug/ml, antibody pre-incubated with biotin Gremlin (Peprotech) 0.1ug/ml, neutravidin-HRP; blocked ligand BMP2. A general note: ELISA stands for enzyme-linked immunosorbent assay.
The target is the same in test [2]. Briefly: blocking ELISA: coated BMP4 0.25ug/ml, antibody pre-incubated with biotin Gremlin (Peprotech) 0.1ug/ml, neutravidin-HRP; blocked ligand BMP4.

B1: 69H5 (antibody, V domains shown)
VH: EVQLQQSGAELVRPGASVKLSCTASGFNIKDDYMHWVKRRPEQGLEWIGWIDPENGDTEYASKFQGKATITADTSSNTAYLQLSSLTSEDTAVYYCTTWATVPDFDYWGQGTTLTVSS
VL: DIVMTQSPSSLAMSVGQKVTMSCKSSQSLLNRSNQKNYLAWYQQKPGQSPKLLVHFTSTRESGVPDRFIGSGSGTDFTLTISNLQAEDLADYFCQQHYSTPFTFGSGTKLEIK
Turning to B1, the binding result in test [1] and in test [2] was “binds” throughout.
